# Reference: doi:10.1101/2021.02.05.426302
# No constants are given. Whether binding was seen depends on the method and setting. In cells and extracts the contact can be indirect. Some results given as binding are weak or reduced against the parent protein; the word gives no strength. Tags and fused reporters may be left off the sequences shown.
# T1: SOBER1-FLAG (SUPPRESSOR OF AVRBST-ELICITED … 1) (Arabidopsis thaliana) (UniProt Q84WK4)
# T1 sequence: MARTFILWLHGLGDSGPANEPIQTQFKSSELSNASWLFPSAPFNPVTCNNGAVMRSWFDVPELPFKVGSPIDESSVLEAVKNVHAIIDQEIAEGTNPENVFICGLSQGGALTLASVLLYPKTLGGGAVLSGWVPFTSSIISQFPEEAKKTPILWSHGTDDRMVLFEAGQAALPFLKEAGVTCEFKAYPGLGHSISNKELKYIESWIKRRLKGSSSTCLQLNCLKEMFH
# B1: FLAG-RIN4 (RPM1-… PROTEIN 4) (protein, UniProt Q8GYN5 1-211)
# chain: MARSNVPKFGNWEAEENVPYTAYFDKARKTRAPGSKIMNPNDPEYNSDSQSQAPPHPPSSRTKPEQVDTVRRSREHMRSREESELKQFGDAGGSSNEAANKRQGRASQNNSYDNKSPLHKNSYDGTGKSRPKPTNLRADESPEKVTVVPKFGDWDENNPSSADGYTHIFNKVREERSSGANVSGSSRTPTHQSSRNPNNTSSCCCFGFGGK
# B2: MYC-RIN4 (protein, UniProt Q8GYN5 1-211)
# chain: B1 chain
# Legend:
# Test in all cases: co-IP
# [1] = target: AvrRpm1-GFP (Pseudomonas syringae) (UniProt Q7BE94)
# [2] = target: T1, SOBER1-FLAG (SUPPRESSOR OF AVRBST-ELICITED … 1) (Arabidopsis thaliana)
# [3] = target: SOBER1^H192A-FLAG (Arabidopsis thaliana) (UniProt Q84WK4)
Binder,binding [1],binding [2],binding [3]
B1,binds,,
B2,,binds,binds
